Assay results as given in the supplement of paper PMC12067093, “Discovery and optimisation of a covalent ligand for TRIM25 and its application to targeted protein ubiquitination” (Chemical Science, 2025).
The other results are listed elsewhere or left out.

Compound: Cc1cc(ccc1-c1ccccc1)C(=O)N1CCCN(CC1)C(=O)CCl [compound 10]
Experiment: probe-labelled cysteine peptide fold change vs DMSO (competition) (log2 fold change); higher = less target engagement (more negative = stronger competition)
Conditions: THP-1, incubation time: 4 h
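Further: competitive profiling in live THP-1 cells: cysteine peptides tagged with an iodoacetamide desthiobiotin (IA-DTB) probe, intensity after compound treatment relative to DMSO-treated cells.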

Target	probe-labelled cysteine peptide fold change (10 µM)	probe-labelled cysteine peptide fold change (50 µM)
IGF2R_P11717_275_LDFCDGHSPAVTITFVCPSER (UniProt P11717)	-0.105	0.197
ILK_Q13418_346_FSFQCPGR (UniProt Q13418)	0.0195	-0.319
IFT27_Q9BW83_166_EMENFEAPFHCLAK (UniProt Q9BW83)	-0.102	-0.227
ILF3_Q12906_278_VLECLASGIVMPDGSGIYDPCEK (UniProt Q12906)	0.305	0.199
IGBP1_P78318_118_EHFINYLTQCHCYHVAEFELPK (UniProt P78318)	0.0733	-0.0679
INF2_Q27J81_104_ISDALLQLTCVSCVR (UniProt Q27J81)	0.668	0.713
INO80E_Q8NBZ0_31_FLIYEHECFQEELRK (UniProt Q8NBZ0)	0.169	0.0871
IMMT_Q16891_697_LLSYASYCIEHGDLELAAK (UniProt Q16891)	0.336	0.332
HYAL3_O43820_220_CHAATLAR (UniProt O43820)	-0.0639	-0.0817
IGF2R_P11717_572_GNIQLSYSDGDDCGHGKK (UniProt P11717)	-0.185	-0.387
IMPACT_Q9P2X3_195_STFQAHLAPVVCPK (UniProt Q9P2X3)	-0.422	-1.61
IFT88_Q13099_162_EVNELVEESCIANSCGDLK (UniProt Q13099)	-0.279	-0.316
IFIH1_Q9BYX4_17_YLISCFR (UniProt Q9BYX4)	-0.0884	-0.0609
IDH2_P48735_113_CATITPDEARVEEFK (UniProt P48735)	0.0282	-0.417
IARS2_Q9NSE4_211_WGIMADWNNCYYTFDGK (UniProt Q9NSE4)	0.354	0.59
IARS_P41252_433_NNDLCYWVPELVR (UniProt P41252)	0.262	0.366
IFI16_Q16666_637_IIAIANYVCR (UniProt Q16666)	-0.11	-0.0451
IDH1_O75874_379_DLAACIK (UniProt O75874)	-0.0344	-0.152
IGBP1_P78318_116+118_EHFINYLTQCHCYHVAEFELPK (UniProt P78318)	0.129	-0.739
IGF2R_P11717_1461_YVDGDLCPDGIR (UniProt P11717)	-0.0631	0.00319

Target	probe-labelled cysteine peptide fold change (10 µM)	probe-labelled cysteine peptide fold change (50 µM)
HUWE1_Q7Z6Z7_467_LEHEVDLCR (UniProt Q7Z6Z7)	-0.107	0.287
IDE_P14735_257_FHSAYYSSNLMAVCVLGR (UniProt P14735)	-0.258	-0.244
IGF2R_P11717_420_YSDGDLTLIYFGGDECSSGFQR (UniProt P11717)	-0.0885	0.13
IDI1_Q13907_39_NCHLNENIEK (UniProt Q13907)	-0.0399	-0.178
IL18_Q14116_10_AAEPVEDNCINFVAMK (UniProt Q14116)	0.222	0.39
HYI_Q5T013_102_ALGCPR (UniProt Q5T013)	-0.118	-0.167
INPP5D_Q92835_819_SSDSDESYGEGCIALR (UniProt Q92835)	-0.0234	0.162
IGF2R_P11717_1839_TYSVGVCTFAVGPEQGGCK (UniProt P11717)	-0.00554	0.112
HUWE1_Q7Z6Z7_790_FVESILSNNTTDDHCQEFVNQK (UniProt Q7Z6Z7)	-0.182	-0.286
IL6R_P08887_277_DLQHHCVIHDAWSGLR (UniProt P08887)	-0.201	-0.668
HUWE1_Q7Z6Z7_19_TPTEAPADCR (UniProt Q7Z6Z7)	-0.363	-0.0262
INPP5A_Q14642_53_PHFMALHCQEFGGK (UniProt Q14642)	-0.142	0.162
ILK_Q13418_8_MDDIFTQCR (UniProt Q13418)	-0.0759	0.389
INF2_Q27J81_971_QEEVCVIDALLADIRK (UniProt Q27J81)	-0.0792	-0.266
IGF2R_P11717_731_ATLITFLCDR (UniProt P11717)	0.14	0.00643
ICAM3_P32942_423_HVLQCQAR (UniProt P32942)	-0.192	-0.0101
IFIT2_P09913_140_IESPELDCEEGWTR (UniProt P09913)	-0.196	-0.414
IGF2R_P11717_823_KYYINVCRPLNPVPGCNR (UniProt P11717)	-0.0593	-0.293
IMPDH2_P12268_468_FVPYLIAGIQHSCQDIGAK (UniProt P12268)	-0.00921	0.0841

Complete entries from above. Order of values: probe-labelled cysteine peptide fold change (10 µM)	probe-labelled cysteine peptide fold change (50 µM)
IL18_Q14116_10_AAEPVEDNCINFVAMK (UniProt Q14116) is listed as 0.222	0.39
INPP5D_Q92835_819_SSDSDESYGEGCIALR (UniProt Q92835) is listed as -0.0234	0.162
